Reference: PubChem BioAssay AID1259308 (NCATS, 2017)

Assay: 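Genes whose loss raises luciferase production in HEK293 cells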 (primary screen)
Cells: human HEK293 embryonic kidney cells stably expressing firefly luciferase (HEK-CMV-Luc2-Hygro)
Knock-down reagent: single siRNA against human genes, 0.8 pmol siRNA per well
Time to read-out: 72 h
Detection: 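Reporter luminescence and viable-cell signal on separate replicate plates, given as percent of non-targeting control and median/MAD z-scores, plus per-cell luciferase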
Scale: total luciferase, z-score and total luciferase, % of control: higher = more reporter protein produced; luciferase per cell, z-score: higher = more reporter output per viable cell; viable cells, % of control: higher = more viable cells
Active means: 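Active when the median/MAD z-score for overall luciferase is greater than 3; a gene was taken forward for validation with new siRNAs if at least two of its three siRNAs passed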
Calls: active = raised luciferase; inactive = no rise
The whole screen tested about 59,000 reagents; below is a random part of them. Over the whole deposit, about 1,510 (2.6%) got an active call. 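Calls use total luciferase alone and ignore viability, so some active siRNAs may act by altering cell number.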 The numbers tell different reagents against one gene apart.

target | reagent | total luciferase, z-score | total luciferase, % of control | luciferase per cell, z-score | viable cells, % of control | outcome
SIGLEC8 (sialic acid binding Ig like lectin 8) | 1 | -1.17 | 58.7 | -0.629 | 77.4 | inactive
SIGLEC8 (sialic acid binding Ig like lectin 8) | 2 | -1.48 | 52.4 | -1.01 | 76.3 | inactive
SIGLEC8 (sialic acid binding Ig like lectin 8) | 3 | -0.568 | 70.6 | 0.251 | 73.8 | inactive
GFOD1 (Gfo/Idh/MocA-like oxidoreductase domain containing 1) | 1 | 0.551 | 92.8 | 1.16 | 76.4 | inactive
GFOD1 (Gfo/Idh/MocA-like oxidoreductase domain containing 1) | 2 | -1.17 | 58.7 | 0.118 | 63.5 | inactive
GFOD1 (Gfo/Idh/MocA-like oxidoreductase domain containing 1) | 3 | 1.1 | 104 | 0.166 | 111 | inactive
GFOD1 (Gfo/Idh/MocA-like oxidoreductase domain containing 1) | 4 | -0.647 | 69 | -1.33 | 110 | inactive
GFOD1 (Gfo/Idh/MocA-like oxidoreductase domain containing 1) | 5 | 0.34 | 88.6 | -0.324 | 108 | inactive
GFOD1 (Gfo/Idh/MocA-like oxidoreductase domain containing 1) | 6 | -0.544 | 71.1 | -1.28 | 111 | inactive
HSPA9 (heat shock protein family A (Hsp70) member 9) | 1 | -1.96 | 43 | -0.982 | 62.2 | inactive
HSPA9 (heat shock protein family A (Hsp70) member 9) | 2 | -1.87 | 44.7 | -1.44 | 73 | inactive
HSPA9 (heat shock protein family A (Hsp70) member 9) | 3 | -2.52 | 31.8 | -2.2 | 63.2 | inactive
PHF20 (PHD finger protein 20) | 1 | -2.39 | 34.3 | -2.66 | 77.3 | inactive
PHF20 (PHD finger protein 20) | 2 | -0.521 | 71.5 | -0.114 | 82.4 | inactive
PHF20 (PHD finger protein 20) | 3 | 0.804 | 97.9 | 2.27 | 60.1 | inactive
TUBB4A (tubulin beta 4A class IVa) | 1 | -0.117 | 79.6 | -0.155 | 92.6 | inactive
TUBB4A (tubulin beta 4A class IVa) | 2 | -0.281 | 76.3 | -0.652 | 101 | inactive
TUBB4A (tubulin beta 4A class IVa) | 3 | -1.15 | 58.9 | -1.08 | 87.5 | inactive
TRPM8 | 1 | 1.43 | 110 | 1.71 | 78.6 | inactive
TRPM8 | 2 | -1.14 | 59.2 | -1.37 | 94.9 | inactive
TRPM8 | 3 | -0.362 | 74.7 | -0.222 | 88.5 | inactive
ERI2 (ERI1 exoribonuclease family member 2) | 1 | 1.44 | 110 | 2.85 | 58.2 | inactive
ERI2 (ERI1 exoribonuclease family member 2) | 2 | 0.754 | 96.9 | 0.966 | 84 | inactive
ERI2 (ERI1 exoribonuclease family member 2) | 3 | 0.0974 | 83.8 | 0.00711 | 93.5 | inactive
SLC6A4 | 1 | 0.786 | 97.5 | 0.188 | 104 | inactive
SLC6A4 | 2 | 0.425 | 90.3 | 0.94 | 78.8 | inactive
SLC6A4 | 3 | -1.48 | 52.4 | -1.9 | 96.5 | inactive
GSTM5 (glutathione S-transferase mu 5) | 1 | -0.262 | 76.7 | 1.87 | 52.4 | inactive
GSTM5 (glutathione S-transferase mu 5) | 2 | 0.171 | 85.3 | -0.204 | 101 | inactive
GSTM5 (glutathione S-transferase mu 5) | 3 | 4.82 | 178 | 3.8 | 72.9 | active
SLC39A12 | 1 | -0.279 | 76.3 | -0.545 | 98.5 | inactive
SLC39A12 | 2 | 0.927 | 100 | 1.04 | 85.3 | inactive
SLC39A12 | 3 | 1.05 | 103 | 0.34 | 105 | inactive
DEFB125 (defensin beta 125) | 1 | -0.807 | 65.8 | -0.586 | 85.8 | inactive
DEFB125 (defensin beta 125) | 2 | 0.287 | 87.6 | 0.579 | 84 | inactive
DEFB125 (defensin beta 125) | 3 | 0.0984 | 83.8 | -0.168 | 97.9 | inactive
FBXW10B (F-box and WD repeat domain containing 10B) | 1 | 0.319 | 88.2 | 0.547 | 85.4 | inactive
FBXW10B (F-box and WD repeat domain containing 10B) | 2 | -0.338 | 75.2 | 0.284 | 77.9 | inactive
FBXW10B (F-box and WD repeat domain containing 10B) | 3 | 1.52 | 112 | 0.892 | 99.1 | inactive

2 successive entries from above, for reference:
target | reagent | total luciferase, z-score | total luciferase, % of control | luciferase per cell, z-score | viable cells, % of control | outcome
TRPM8 | 2 | -1.14 | 59.2 | -1.37 | 94.9 | inactive
TRPM8 | 3 | -0.362 | 74.7 | -0.222 | 88.5 | inactive
